Some of these results come from one statement about several compounds together.
System: Candida albicans biofilms
Assay: Antifungal activity of antifungal compositions at low temperature (biofilm on stainless steel coupons)
Type: cell-based
Conditions: 5° C., 5 minutes treatment; FIG. 2

Row | Compound | inhibitory activity on Candida albicans biofilms
1 | CC(O)CO (centres unmarked) [compound 1, propylene glycol] | less than 0.50 log CFU/cm^2
2 | CCCCCCCC(=O)O [compound 3, caprylic acid] | less than 0.50 log CFU/cm^2
